Data on seven sequences can be found in article PMC12402098, “YTHDF3 recognizes DNA N6-methyladenine and recruits ALKBH1 for 6mA removal from genomic DNA” (The EMBO Journal, 2025).

Substitutions are numbered along the chain they refer to. Construct, isoform or probe ends are uncertain for at least one entry. For some of these results: A weaker result is weaker than the reference pair of the same experiment. For some of these results: Protein sequences can lack the tags named with them. For some of these results: Results from cells or extracts need not show a direct contact.

In one data set the target is T1, ALKBH1 (UniProt Q13686).
T1 sequence (looked up, limits assumed): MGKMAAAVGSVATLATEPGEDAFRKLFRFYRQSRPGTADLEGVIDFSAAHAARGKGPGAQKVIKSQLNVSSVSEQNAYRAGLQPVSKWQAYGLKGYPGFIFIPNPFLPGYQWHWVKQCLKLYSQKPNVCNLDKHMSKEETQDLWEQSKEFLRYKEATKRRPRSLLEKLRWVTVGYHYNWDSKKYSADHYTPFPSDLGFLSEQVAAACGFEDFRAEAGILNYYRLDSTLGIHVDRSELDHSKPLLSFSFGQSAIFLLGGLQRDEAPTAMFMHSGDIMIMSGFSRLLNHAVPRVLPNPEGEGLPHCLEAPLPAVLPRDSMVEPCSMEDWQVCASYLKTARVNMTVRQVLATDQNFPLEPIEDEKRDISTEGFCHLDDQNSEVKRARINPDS
The experiment in a line: SPR. The following applies: SPR: 1x HBS-EP+, biotin-DNA on SA chip (~500 RU), 30 ul/min, recombinant protein, label: 3' biotin strand 1.

In data set [1] the target is T2, YTHDF3 wild type (UniProt Q7Z739).
T2 sequence (looked up, limits assumed): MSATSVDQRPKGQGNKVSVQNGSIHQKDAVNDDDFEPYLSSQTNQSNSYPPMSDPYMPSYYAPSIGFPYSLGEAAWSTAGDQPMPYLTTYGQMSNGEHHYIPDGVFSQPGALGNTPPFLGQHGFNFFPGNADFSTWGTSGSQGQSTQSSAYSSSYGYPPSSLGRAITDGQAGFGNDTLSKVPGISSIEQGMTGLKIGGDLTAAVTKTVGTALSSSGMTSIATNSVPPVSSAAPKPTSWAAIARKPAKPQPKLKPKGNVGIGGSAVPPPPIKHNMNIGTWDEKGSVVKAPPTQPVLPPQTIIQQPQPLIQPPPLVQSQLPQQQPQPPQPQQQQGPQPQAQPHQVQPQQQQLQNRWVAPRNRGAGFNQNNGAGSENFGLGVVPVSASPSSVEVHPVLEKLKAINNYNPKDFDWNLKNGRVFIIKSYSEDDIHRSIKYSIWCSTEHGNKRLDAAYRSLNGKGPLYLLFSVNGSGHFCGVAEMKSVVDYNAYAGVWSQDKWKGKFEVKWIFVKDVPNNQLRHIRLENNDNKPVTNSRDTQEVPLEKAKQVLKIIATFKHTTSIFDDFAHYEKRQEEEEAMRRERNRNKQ
The experiment in a line: SPR. The following applies: SPR: 1x HBS-EP+, biotin-DNA on SA chip (~500 RU), 30 ul/min, recombinant protein, protein details: His, label: 3' biotin strand 1.

Data set [2] concerns the target T2, YTHDF3 wild type. The experiment in a line: EMSA. The following applies: EMSA: LightShift kit, 30 C 20 min, then 2% glutaraldehyde on ice 15 min, 5% native gel, recombinant protein, protein details: His, label: 3' biotin strand 1.
The target in data set [3] is T3, YTHDF3 wild type, immunopurified (Homo sapiens) (UniProt Q7Z739).
T3 sequence (looked up, limits assumed): T2 sequence (looked up, limits assumed)
The experiment in a line: EMSA. The following applies: EMSA: LightShift kit, 30 C 20 min, then 2% glutaraldehyde on ice 15 min, 5% native gel, protein in a lysate after overexpression, protein details: Flag, label: 3' biotin strand 1. On the technique in general: Mobility shift assays separate free from complexed probe on a gel.

The target of data set [4] is T4, YTHDF3 YTH domain construct (UniProt Q7Z739).
T4 sequence (looked up, limits assumed): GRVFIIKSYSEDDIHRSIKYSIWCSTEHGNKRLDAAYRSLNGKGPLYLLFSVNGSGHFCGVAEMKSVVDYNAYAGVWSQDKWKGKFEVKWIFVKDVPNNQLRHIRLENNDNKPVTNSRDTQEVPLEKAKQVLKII
The experiment in a line: pull-down. The following applies: N6-methyl-dA at A10 of strand 1; pull-down: streptavidin-agarose, 1 nmol DNA, 30 C 30 min; protein in a lysate after overexpression; protein details: Flag; label: 3' biotin strand 1.

Data set [5] deals with T5, cellular ALKBH1 (Homo sapiens) (UniProt Q13686).
T5 sequence (looked up, limits assumed): T1 sequence (looked up, limits assumed)
The experiment in a line: pull-down. The following applies: increased by YTHDF3, decreased in YTHDF3 KO; N6-methyl-dA at A10 of strand 1; pull-down: streptavidin-agarose, 1 nmol DNA, 30 C 30 min; protein in an extract; label: 3' biotin strand 1.

Data set [6] has as its target T6, YTHDF3 MT6mA, immunopurified or cellular W438R,W492R (Homo sapiens) (UniProt Q7Z739).
T6 sequence (looked up, limits assumed): T2 sequence (looked up, limits assumed) with W438R, W492R
The experiment in a line: EMSA, pull-down. The following applies: N6-methyl-dA at A10 of strand 1; EMSA: LightShift kit, 30 C 20 min, then 2% glutaraldehyde on ice 15 min, 5% native gel; protein in a lysate after overexpression; protein details: Flag; label: 3' biotin strand 1.

Data set [7] concerns ALKBH1 + YTHDF3 wild type. The experiment in a line: pull-down, EMSA. The following applies: YTHDF3 increases ALKBH1 binding; N6-methyl-dA at A10 of strand 1; EMSA: LightShift kit, 30 C 20 min, then 2% glutaraldehyde on ice 15 min, 5% native gel; recombinant protein; label: 3' biotin strand 1.
Another data set concerns the target T7, YTHDF3 MT6mA W438R,W492R (UniProt Q7Z739).
T7 sequence (looked up, limits assumed): T2 sequence (looked up, limits assumed) with W438R, W492R
The experiment in a line: pull-down or EMSA. The following applies: N6-methyl-dA at A10 of strand 1; EMSA: LightShift kit, 30 C 20 min, then 2% glutaraldehyde on ice 15 min, 5% native gel; recombinant protein; protein details: His; label: 3' biotin strand 1.

In data set [8] the target is T2, YTHDF3 wild type. The experiment in a line: EMSA, pull-down. The following applies: EMSA: LightShift kit, 30 C 20 min, then 2% glutaraldehyde on ice 15 min, 5% native gel, recombinant protein, protein details: His.
Data set [9] deals with ALKBH1 + YTHDF3 wild type. The experiment in a line: pull-down. The following applies: YTHDF3 increases ALKBH1 binding; N6-methyl-dA at A20 of strand 1; pull-down: streptavidin-agarose, 1 nmol DNA, 30 C 30 min; recombinant protein; label: 3' biotin strand 1.
[10] abbreviates: N6-methyl-dA at A10 of strand 1.

For “CTATGTTTCATGTACCGCCA (double strand) [6mA-ds-oligo]”, the values for the dissociation constant (Kd) with ALKBH1 (setting [10]) and in the data set with YTHDF3 wild type [1] (setting [10]) were 1240 nM and 162 nM, respectively. Further, the binding result is “binds” in the data set with YTHDF3 wild type [2] (setting [10]); “binds” in data set [3] (setting [10]); “binds” in data set [4]; “binds” in data set [5]; “binds more weakly” in data set [6]; “binds” in data set [7]. The binding result in the data set with YTHDF3 MT6mA W438R,W492R is recorded as “binds more weakly”.
Consider “AACTTCGTGCAGGCATGGGATCTTGTCTACT / AGTAGACAGTCGATCATGCCTGCACGAAGTT [Bubble-A]”, for which the binding result in the data set with YTHDF3 wild type [8] (label: 3' biotin strand 1) is “binds more weakly”.
In the case of “AACTTCGTGCAGGCATGGGATCTTGTCTACT (double strand) [ds-6mA]”, the binding result in data set [9] is given as “binds”; in the data set with YTHDF3 wild type [8] (N6-methyl-dA at A20 of strand 1, label: 3' biotin strand 1), “binds”.
As to “AACTTCGTGCAGGCATGGGATCTTGTCTACT (double strand) [ds-A]”, the binding result with YTHDF3 wild type [8] (label: 3' biotin strand 1) was “binds more weakly”.
The same measure, in the same setting: with “AACTTCGTGCAGGCATGGGATCTTGTCTACT / AGTAGACACATGCCTGCACGAAGTT [Bulge-A]” the entry was “binds more weakly”.
On to AACTTCGTGCAGGCATGGGATCTTGTCTACT [ss-A], for which the binding result in the data set with YTHDF3 wild type [8] (label: 3' biotin, single-stranded DNA) was “binds more weakly”.
Turning to “CTATGTTTCATGTACCGCCA (double strand) [A-ds-oligo]”, the Kd (usually a measure of binding affinity in units of concentration) with ALKBH1 turned out to be 2440 nM; in the data set with YTHDF3 wild type [1], 512 nM. The binding result (with YTHDF3 wild type [2]; in [3]) was “binds more weakly” throughout.
